Our source for the binding values is article PMC5140063.

Chains of the proteins cited; added tags and fusions are not shown.
UniProt P28033: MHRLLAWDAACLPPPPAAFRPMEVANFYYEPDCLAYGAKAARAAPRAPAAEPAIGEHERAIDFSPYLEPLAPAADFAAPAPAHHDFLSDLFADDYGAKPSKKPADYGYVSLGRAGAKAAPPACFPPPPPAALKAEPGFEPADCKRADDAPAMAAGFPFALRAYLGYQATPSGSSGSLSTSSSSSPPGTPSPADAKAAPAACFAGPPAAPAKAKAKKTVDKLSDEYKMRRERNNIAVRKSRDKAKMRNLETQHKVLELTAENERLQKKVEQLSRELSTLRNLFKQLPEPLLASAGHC
UniProt P53566: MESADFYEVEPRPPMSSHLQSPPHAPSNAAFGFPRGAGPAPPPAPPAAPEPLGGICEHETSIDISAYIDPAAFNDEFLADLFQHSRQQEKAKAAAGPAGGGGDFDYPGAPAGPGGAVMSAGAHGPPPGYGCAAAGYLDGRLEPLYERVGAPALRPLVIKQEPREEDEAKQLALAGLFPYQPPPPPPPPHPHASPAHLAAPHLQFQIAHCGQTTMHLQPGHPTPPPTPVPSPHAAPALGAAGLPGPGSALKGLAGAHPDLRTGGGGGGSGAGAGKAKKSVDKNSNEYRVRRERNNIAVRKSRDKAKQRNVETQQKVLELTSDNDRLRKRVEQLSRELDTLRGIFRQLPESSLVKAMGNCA

For the test, the target named is T1, SIX1 (hSix1:myc:DDK) (human) (UniProt Q15475).
T1 sequence: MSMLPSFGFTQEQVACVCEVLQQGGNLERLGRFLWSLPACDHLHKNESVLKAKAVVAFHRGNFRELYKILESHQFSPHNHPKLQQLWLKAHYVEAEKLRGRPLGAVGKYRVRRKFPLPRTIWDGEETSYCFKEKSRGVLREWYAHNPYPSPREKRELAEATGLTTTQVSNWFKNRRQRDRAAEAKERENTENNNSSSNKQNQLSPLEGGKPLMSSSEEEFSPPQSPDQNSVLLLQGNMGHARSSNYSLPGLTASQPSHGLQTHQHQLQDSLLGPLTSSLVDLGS
The test can be described thus: co-IP; HEK293 cells transfected with tagged constructs and harvested after three days; lysis buffer 50 mM Tris-HCl pH7.4, 150 mM NaCl, 1 mM EDTA, 0.1% NP40; 500 μg total protein incubated overnight at 4°C with anti-FLAG M2 affinity gel (SIX1:myc:DDK as bait); washes with lysis buffer and RIPA buffers; Western analysis.

No constants are given. Whether binding was seen depends on the method and setting. Binding seen in cells or lysates may run through a third protein. Some binding calls cover weakened binding; strength is not graded here. Where a sequence is shown, tags or fusion partners need not be part of it.

As to “C/EBPβ (mCebpb) (from UniProt P28033 1-296)”, the binding entry is listed as “binds”. On to “C/EBPα (Cebpa:HA) (from UniProt P53566 1-359)”, for which the binding result is given as “binds”.

B1: EBF2 (mEbf2:tGFP) (protein, UniProt O08792 1-575)
chain: MFGIQDTLGRGPALKDKSLGAEMDSVRSWVRNVGVVDANVAAQSGVALSRAHFEKQPPSNLRKSNFFHFVLALYDRQGQPVEIERTAFVDFVENDKEQGNEKTNNGTHYKLQLLYSNGVRTEQDLYVRLIDSVTKQPIAYEGQNKNPEMCRVLLTHEVMCSRCCEKKSCGNRNETPSDPVIIDRFFLKFFLKCNQNCLKTAGNPRDMRRFQVVLSTTVNVDGHVLAVSDNMFVHNNSKHGRRARRLDPSEATPCIKAISPSEGWTTGGAMVIIIGDNFFDGLQVVFGTMLVWSELITPHAIRVQTPPRHIPGVVEVTLSYKSKQFCKGAPGRFIYTALNEPTIDYGFQRLQKVIPRHPGDPERLAKEMLLKRAADLVEALYGTPHNNQDIILKRAADIAEALYSVPRNPSQIPALSSSPAHSGMMGINSYGSQLGVSISESTQGNNQGYIRNTSSISPRGYSSSSTPQQSNYSTSSNSMNGYSNVPMANLGVPGSPGFLNGSPTGSPYGIMSSSPTVGSSSTSSILPFSSSVFPAVKQKSAFAPVIRPQGSPSPACSSGNGNGFRAMTGLVVPPM
For the molecule B1, the binding result was “binds”.
